Taken from: PubChem BioAssay AID602196 (INSERM, 2012)
Aim: 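Modifiers of cisplatin sensitivity in A549 cells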. System: human A549 lung cancer cells. Reagent: siRNA pair against human genes. Timing: 48 h transfection before cisplatin; time from cisplatin to read-out not stated. Conditions: cisplatin at a dose killing half of control-siRNA cells; exact dose and duration not given. Detection: 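Cisplatin cell death as a shift from the 50% death seen with control siRNA; siRNAs toxic or growth-blocking alone scored 0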. Reading the numbers: two-siRNA summed score (-2 to +2): higher = both siRNAs protect from cisplatin killing; -2 means both sensitise; mean protection from cisplatin (shift in death) and protection from cisplatin (shift in death), siRNA C: higher = protection from cisplatin killing. Call rule: 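siRNAs harmful alone (LDH or WST-1) get 0; others get +1 for less and -1 for more cisplatin killing; genes are active when the two siRNAs give the same sign, summing to ±2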. Meaning of the calls: active = both siRNAs shift cisplatin killing the same way; inactive = no consistent shift, or siRNA harmful alone.
In all, the deposit lists about 23,000 reagents; below is a part drawn at random. Of all reagents, 455 (2%) got an active call. 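Active includes both protection and sensitisation; some change values fall well beyond the stated -50 to +50 range.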 Entries without a mark were called inactive. Not all columns of the deposit are shown. No sequences are given here. Not stated in the record: the amount of reagent.

| gene | PubChem SID | two-siRNA summed score (-2 to +2) | mean protection from cisplatin (shift in death) (%) | protection from cisplatin (shift in death), siRNA C (%) |
| --- | --- | --- | --- | --- |
| LOC440708 | SID131513850 | 0 | 7.1 | -1.5 |
| DZIP1 | SID131506435 | 0 | -1.5 | -1.1 |
| ARPC1B | SID131512988 | 0 | 6.1 | 8.9 |
| SIGIRR | SID131501508 | -1 | -9.3 | 0.6 |
| SLC18A3 | SID131509012 | 0 | 1.7 | 19.1 |
| CPEB2-DT | SID131511460 | 0 | 4.4 | 2.2 |
| MAGEE2 | SID131505919 | 0 | -2.3 | 2 |
| POLRMT | SID131522321 | 1 | 17.7 | 16.6 |
| GNPTAB | SID131514756 | 0 | 8.2 | 4.2 |
| RBMXL2 | SID131514226 | 0 | 7.5 | 15.3 |
| LOC440753 | SID131520801 | 1 | 11.2 | 18.5 |
| MS4A3 | SID131512538 | 0 | 5.6 | 2.6 |
| ZNF473 | SID131512806 | 0 | 5.9 | 8.4 |
| TNFSF13 | SID131522263 | 1 | 17.2 | 16.9 |
| NPAS4 | SID131502141 | -1 | -5 | -19.8 |
| LOC391714 | SID131502465 | -1 | -2.1 | 9.6 |
| LOC345079 | SID131504773 | 0 | -4.5 | -2.2 |
| NKX3-1 | SID131507107 | 0 | -0.5 | -8.6 |
| CHGB | SID131510021 | 0 | 2.8 | 4 |
| LYSMD1 | SID131512965 | 0 | 6 | 6.2 |
| CCNC | SID131503902 | 0 | -7.2 | -8.6 |
| EN1 | SID131501788 | -1 | -7.4 | -18.3 |
| RPS27 | SID131502575 | -1 | -0.6 | 17.5 |
| LOC440391 | SID131516567 | 0 | 11.1 | 15.1 |
| LOC390110 | SID131502727 | -1 | 4.1 | 18.7 |
| HMCES | SID131507667 | 0 | 0.1 | 7.8 |
| FLJ39075 | SID131514734 | 0 | 8.2 | 9 |
| LOC440273 | SID131519641 | 1 | 6.8 | 7.7 |
| PGM3 | SID131506058 | 0 | -2.1 | 4.6 |
| GCAT | SID131515319 | 0 | 9 | 13.6 |
| VWA1 | SID131507068 | 0 | -0.6 | -2.8 |
| LOC388305 | SID131511225 | 0 | 4.1 | -4.8 |
| LOC286208 | SID131514939 | 0 | 8.4 | 7.1 |
| SYTL1 | SID131515572 | 0 | 9.4 | -2.8 |
| C19orf44 | SID131513724 | 0 | 6.9 | 6.8 |
| RAD23A | SID131516035 | 0 | 10.1 | 7.3 |
| CIMIP5 | SID131514952 | 0 | 8.5 | 8 |
| KLRC4 | SID131500354 | -2 (active) | -18.9 | -19.5 |
| UBE2R2 | SID131522306 | 1 | 17.6 | 9 |
| DYDC2 | SID131507633 | 0 | 0.1 | -5.5 |
| USF1 | SID131518914 | 1 | -7.3 | -24.1 |
| RPAP1 | SID131512697 | 0 | 5.8 | 10.3 |
| ZNF134 | SID131520232 | 1 | 9.1 | 7.9 |
| LOC255326 | SID131512072 | 0 | 5.1 | 5 |
| LOC389416 | SID131500863 | -1 | -15 | -0.9 |
| SIX3 | SID131522702 | 1 | 22 | 25.9 |
| LOC286327 | SID131501061 | -1 | -12.7 | -18.6 |
| ZNF81 | SID131521531 | 1 | 13.9 | 14.4 |
| PVALB | SID131514601 | 0 | 8 | 1.8 |
| SLITRK3 | SID131505514 | 0 | -3 | 2.1 |
| XPNPEP1 | SID131502943 | 0 | -17.7 | -36.3 |
| PLSCR2 | SID131512139 | 0 | 5.1 | 4.1 |
| KIDINS220 | SID131502182 | -1 | -4.6 | 4.8 |
| BGN | SID131521909 | 1 | 15.4 | 25.6 |
| ASAP2 | SID131521835 | 1 | 15.1 | 11.9 |
| AP1S2 | SID131504397 | 0 | -5.5 | -19 |
| PRKCE | SID131515830 | 0 | 9.8 | 11.8 |

Entries listed so far marked active, once more:
| gene | PubChem SID | two-siRNA summed score (-2 to +2) | mean protection from cisplatin (shift in death) (%) | protection from cisplatin (shift in death), siRNA C (%) |
| --- | --- | --- | --- | --- |
| KLRC4 | SID131500354 | -2 (active) | -18.9 | -19.5 |
